From PubChem BioAssay AID651660 (Broad Institute, 2012) come the findings set out here.

By UniProt entry, the sequences of proteins in these tests, tags left out. Where a name states a change or a piece, a line headed by the entry shows the natural chain unless it says otherwise.
UniProt P43351: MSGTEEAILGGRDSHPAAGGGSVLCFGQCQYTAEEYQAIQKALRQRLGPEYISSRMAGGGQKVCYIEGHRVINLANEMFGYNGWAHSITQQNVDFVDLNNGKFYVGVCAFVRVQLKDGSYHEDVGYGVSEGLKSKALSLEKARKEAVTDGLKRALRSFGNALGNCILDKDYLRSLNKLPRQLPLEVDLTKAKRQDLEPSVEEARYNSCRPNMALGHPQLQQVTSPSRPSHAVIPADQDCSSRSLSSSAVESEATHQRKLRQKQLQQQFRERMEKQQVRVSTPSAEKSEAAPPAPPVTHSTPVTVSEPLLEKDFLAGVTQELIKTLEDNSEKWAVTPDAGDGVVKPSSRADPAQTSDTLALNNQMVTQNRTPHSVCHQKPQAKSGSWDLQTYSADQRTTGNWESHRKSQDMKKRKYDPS

Where “and” joins values, the source holds several entries; their conditions need not be identical. Equal entries are not always repeated. Among all 1,900 compounds or so, about 15 (0.8%) were called active.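 The calls were made as follows: active = every replicate shows at least 50% inhibition; inconclusive = mean inhibition at least 50% but some replicate below; inactive = the rest.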 The list shows a part of the results. Non-standard residues stand in square brackets, D forms with d. Residues, ends and D or L forms follow the SMILES beside them. ξ: configuration not given here. ξV = CC(C)C(N)C(=O)O

The inhibition is the change of the read-out against control, counted positive when it falls.

This test has as its target DNA repair protein RAD52 homolog (Homo sapiens) (UniProt P43351). The test is described as follows: RAD52 ssDNA annealing inhibitors, primary screen, biochemical, FRET, single point (AID 651660).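 Also: 0% = median of neutral control wells and 100% = median of positive control wells.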 To be noted: Recombinant RAD52 ssDNA annealing, FRET fluorescence, 30 min; at 18.7 µM; stronger effect = higher value.
Regarding `CC1CNCCN1S(=O)(=O)c1cccc2cnccc12` (stereo not given), the inhibition was inactive: -2.88%.
With `COCCn1c(/C=C/c2ccccc2)nc2ccccc21` the figure was inactive: 2.84%.
Under `CCOC(=O)C1=C[C@]2(CC)CCCN3CCc4c(n1c1ccccc41)[C@@H]32` stands inactive: -35.6%; under `COc1ccccc1C(O)c1nccn1C` (stereo not given), inactive: 0.191%.
On to `COc1ccc2c(c1)[N+](C)(C)C(C)(C)C=C2C`, for which the inhibition was inactive: 2.05%.
With `C#CCN1C(=O)C(O)(c2c(C)[nH]c3ccccc23)c2ccccc21` (stereo not given) the figure was inactive: -11.1%; with `c1ccc2[nH]c(-c3cscn3)nc2c1`, inactive: 2.21%; with `CN1[C@@H](CC(=O)c2ccccc2)CCC[C@H]1C[C@H](O)c1ccccc1`, inactive: -0.491%.
Take `CC1=NN(C(=O)c2ccc(Br)cc2)C(O)(c2ccccc2)C1` (stereo not given): the inhibition was inactive: 0.893%.
Under `CCC(C)NCCOCCOc1ccc(Cl)cc1Br` (stereo not given) stands inactive: 9.51%; under `COc1cc(NC(=S)NN2CCN(C)CC2)cc(OC)c1OC`, inactive: -4.66%; under `CC12CC(c3ccccc3O1)C(C(=O)N1CCOCC1)C(=O)N2` (stereo not given), inactive: 2.26%.
With `O=C(OCCNC(=O)c1ccc2ccccc2n1)c1ccc(F)cc1` the figure was inactive: 3.05%; with `O=C(c1ccc(Cl)cc1)C1CCCN(Cc2ccc(Oc3ncccn3)cc2)C1` (stereo not given), inactive: 1.51%; with `COc1ccc(C2C3=C(CC(C)(C)CC3=O)N(C)C3=C2C(=O)CC(C)(C)C3)cc1`, inactive: -13.9%.
As to `Cc1c(NC(=O)c2cccs2)cccc1[N+](=O)[O-]`, the inhibition was inactive: 0.122%.
Take `Cc1nc2cc3ccccc3cc2c(=O)[nH]1`: the inhibition is inactive: -5.13%.
Under `COc1cccc(CN2C(=O)N(C(C)C)C(N(O)C(=O)NC(C)C)C2(C)C)c1OC` (stereo not given) stands inactive: 2.14%; under `C#CCN(C)CCCOc1ccc(Cl)cc1Cl`, inactive: 7.83%.
Under `Cn1c(=O)c2c(ncn2CCO)n(C)c1=O` stands inactive: -12.2%; under `COc1ccc(-n2cc(CNCc3cccnc3)c(-c3cccc(F)c3)n2)cc1`, inactive: 28.8%; under `COc1ccc2c(c1)[nH]c1c(=O)n(Cc3ccccn3)cnc12`, inactive: 2.57%.
Under `CC1(C)CC(=O)c2cnc(NC(=O)C3CCCC3)nc2C1` stands inactive: 0.741%.
Take `Cn1c(=O)[nH]c(=O)c2c1nc(NCc1ccco1)n2CCCc1ccccc1`: the inhibition was inactive: -5.64%.
Consider `Cc1ccc2c(c1)C(O)(CC(=O)/C=C/C=C/c1ccccc1)C(=O)N2` (stereo not given), for which the inhibition is inactive: -10.7%.
Under `CCCCC/C=C\C[C@H](O)/C=C/c1cccc(C[C@H](O)CCCCO)n1` stands inactive: -31.2%; under `COc1ccccc1OCC(=O)O`, inactive: 5.53%.
Regarding `Cc1cc(=O)c2c(O)c(O)ccc2o1`, the inhibition was inactive: -11.5%.
Under `CC1(C)S[C@@H]2[C@H](NC(=O)Cc3ccccc3)C(=O)N2[C@H]1C(=O)O` stands inactive: 5.89%; under `CCCCCCCC(=O)OCC(=O)[C@@]1(O)CC[C@H]2[C@@H]3CCC4=CC(=O)CC[C@]4(C)[C@H]3[C@@H](O)C[C@@]21C`, inactive: -3.41%.
With `COc1cc(OC)c(-c2nc3cnccc3n2C)cc1OC`, the inhibition was inactive: -3.52%.
Take `O=C1CC(c2ccc(F)cc2)Cc2nc(NCC3CCCO3)ncc21` (stereo not given): the inhibition is inactive: -1.18%.
In the case of `CNCCCN1c2ccccc2CCc2ccccc21`, the inhibition is inactive: -18.4%.
Under `C[n+]1ccccc1/C=N/O` stands inactive: -4.99% and inactive: -10.2%; under `COc1ccc(CN2CCCCC2C(=O)Nc2ccc(OC)c(OCC(C)C)c2)cc1OC` (stereo not given), inactive: -5.32%.
With `CCC(C)n1ncn(-c2ccc(N3CCN(c4ccc(OCC5COC(Cn6cncn6)(c6ccc(Cl)cc6Cl)O5)cc4)CC3)cc2)c1=O` (stereo not given) the figure was inactive: -0.796%; with `Cc1cccc(Nc2ccccc2C(=O)O)c1C`, inactive: -13.3%.
Under `CCOc1ncnc2c1[nH]c1ccccc12` stands inactive: 2.77%.
In the case of `CN(C)C(=O)Oc1cccc([N+](C)(C)C)c1`, the inhibition was inactive: -2.12% and inactive: -7.4%.
For `CN1CCC(OC(c2ccccc2)c2ccccc2)CC1`, the inhibition is inactive: 1.95%.
Take `CC12CN3CC(C)(CN(C1)C3c1ccc(Cl)cc1Cl)C2=O` (stereo not given): the inhibition is inactive: -9.22%.
Under `Cc1cc(O)c(C(=O)Cc2csc(C)n2)c(O)c1` stands inactive: 0.256%.
Under `O=c1[nH]cnc2[nH]ncc12` stands inactive: -2.05%.
As to `NC(CO)C(=O)NNCc1ccc(O)c(O)c1O` (stereo not given), the inhibition was inactive: 20.8%.
For `CN(C)CCCN1c2ccccc2CCc2ccccc21`, the inhibition was inactive: -3.5%.
For the compound `COc1cccc(OCC(O)CO)c1` (stereo not given), the inhibition is inactive: 1.01%.
Under `CCC(=O)c1ccc(OCc2ccc(C(=O)OC)cc2)cc1` stands inactive: 1.33%.
Regarding `CC(C)CN1CCN(Cc2cccn2-c2ccccn2)CC1CCO` (stereo not given), the inhibition was inactive: -26.2%.
Under `CC1(C)C(C=C(Cl)Cl)C1C(=O)N1CCN(Cc2ccccc2)CC1` (stereo not given) stands inactive: -2.42%; under `CNC(=O)Oc1ccc2c(c1)[C@]1(C)CCN(C)[C@@H]1N2C`, inactive: 3.13%.
With `COc1cc(/C=C/C(=O)CC(=O)/C=C/c2ccc(O)c(OC)c2)ccc1O`, the inhibition is inactive: -278%.
With `CC(=O)OCC[N+](C)(C)C` the figure was inactive: 2.07% and inactive: -3.86%.
Under `CC[n+]1ccc2cc(OC)c(OC)cc2c1Cc1ccc(OC)c(OC)c1` stands inactive: 0.192%; under `O=C(/C=C/c1ccc2c(c1)OCO2)c1ccccn1`, inactive: -21.4%; under `Cn1c(=O)c(C(=O)NCCO)c(O)c2ccccc21`, inactive: 1.86%.
Under `CN1C(=O)C(O)(CC(=O)/C=C/C=C/c2ccccc2)c2ccccc21` (stereo not given) stands inactive: -13.6%.
Take `Cn1cc(C2N3CC4(C)CN2CC(C)(C3)C4=O)c2ccccc21` (stereo not given): the inhibition is inactive: -2.47%.
Regarding `OCCN(CCO)c1ccc2ccccc2c1`, the inhibition was inactive: -0.71%.
As to `CC(C)(C)C(=O)NC(=S)NNC(=O)c1ccncc1`, the inhibition is inactive: -11.2%.
In the case of `CN(C)[C@@H]1C(=O)C(C(N)=O)=C(O)[C@@]2(O)C(=O)C3=C(O)c4c(O)ccc(Cl)c4[C@@H](O)[C@H]3C[C@@H]12`, the inhibition is inactive: -21.9%.
With `CCOC(=O)c1ccc(N2C(=O)C(CC(N)=O)N(CCc3ccc(OC)c(OC)c3)C2=S)cc1` (stereo not given) the figure was inactive: 3.53%; with `COc1ccc2[nH]cc(CCNC(=O)C3CCCNC3=O)c2c1` (stereo not given), inactive: 0.0365%; with `CC1COc2c(N3CCN(C)CC3)c(F)cc3c(=O)c(C(=O)O)cn1c23` (stereo not given), inactive: -9.72%.
Under `CCN(CC)C(=O)c1sc(NC(=O)c2c(OC)cccc2OC)c(C#N)c1C` stands inactive: -7.02%; under `O=C(O)/C=C/c1cnc[nH]1`, inactive: 7.74%; under `NCc1ccccc1COc1ccccc1`, inactive: -4.4%.
Under `COCCCNc1nc2c([nH]1)c(=O)[nH]c(=O)n2C` stands inactive: -1.14%; under `CC(C)(C)NCC(O)COc1cccc2c1C[C@H](O)[C@H](O)C2` (stereo not given in full), inactive: -8.68%.
On to `O=C1CN(O)C=C2N=c3ccccc3=C2N1c1ccc([N+](=O)[O-])cc1`, for which the inhibition was inactive: -6.26%.
On to `COCCc1ccc(OCC(O)CNC(C)C)cc1` (stereo not given), for which the inhibition was inactive: -1.06%.
As to `CC(C)Cc1ccc(C(C)C(=O)O)cc1` (stereo not given), the inhibition was inactive: -18.4%.
`CC(=O)NC(C(=O)NCC(N)=O)C(C)C` (stereo not given) (Ac-[ξV]-Gly-NH2): the inhibition was inactive: 2.28%.
`O=S(=O)(CCc1nc2ccccc2[nH]1)c1ccc(Cl)cc1`: the inhibition is inactive: -5.81%.
Take `C[N+](C)(C)CCOP(=O)([O-])OC[C@H](O)CO`: the inhibition is inactive: 6.57%.
Take `CC(C)Oc1cccc(C(=O)N2CCCC2)c1`: the inhibition was inactive: -2.43%.
Under `CN(C)C(=O)CCCCCCCCC(=O)N(C)C` stands inactive: -13.3%.
As for `CC(=O)NC(Cc1c[nH]c2ccccc12)C(=O)N/N=C/c1ccccc1` (stereo not given), the inhibition is inactive: -9.28%.
With `COc1ccc(-c2nc(NC(C)=O)sc2-c2ccc(OC)cc2)cc1` the figure was inactive: 7.84%.
Under `Cc1nc(NCc2ccco2)c(C#N)c2c1COC(C)(C)C2` stands inactive: -36.8%; under `C=C(C)C(=O)Nc1ccc(NC(C)C)cc1`, inactive: -20.1%.
With `O=C1[C@@H]2CSCN2C(=O)CN1Cc1ccc(F)cc1` the figure was inactive: 1.73%; with `COc1cc(C(=O)Nc2ccc(N(C)C)cc2)c([N+](=O)[O-])cc1OC`, inactive: 4.77%.
As for `CC(C)(C)NCC(O)c1cc(O)cc(O)c1` (stereo not given), the inhibition is inactive: -0.924%.
Consider `COc1ccc(Cc2nc(-c3ccc(Br)cc3)no2)cc1`, for which the inhibition was inactive: -3.69%.
`CCc1oc2ccccc2c1C(=O)c1cc(Br)c(O)c(Br)c1`: the inhibition is inactive: -13.4%.
Turning to `CC(C)NC(=O)c1ccc(C(C)C)cc1`, the inhibition was inactive: -5.18%.
With `O=C1C2C3C=CC(C4CC34)C2C(=O)N1/N=C/c1ccc(-c2ccc([N+](=O)[O-])cc2)o1` (stereo not given), the inhibition is inactive: -40.7%.
As to `c1ccc(Nc2cccc3c(Nc4ccccc4)cccc23)cc1`, the inhibition is active: 51.9%.
With `COC(=O)C1=C(C)NC(C)=C(C(=O)OCCN(C)Cc2ccccc2)C1c1cccc([N+](=O)[O-])c1` (stereo not given) the figure was inactive: 12.7%; with `COc1ccc(-c2nnc(-c3cc4c(ccc5ccccc54)oc3=O)o2)cc1`, inactive: -4.25%; with `CC(=O)SC1CC2=CC(=O)CCC2(C)C2CCC3(C)C(CCC34CCC(=O)O4)C12` (stereo not given), inactive: -15.3%.
With `CNc1c2c(nn1C)CCCC2` the figure was inactive: 5.41%; with `CC(C)CN1CC(C(=O)O)CC1=O` (stereo not given), inactive: -3.12%; with `CC(C)=CCC(C)(C)/C=N/NC(N)=O`, inactive: -3.93%.
With `COc1c2ccoc2nc2c(OC)cccc12` the figure was inactive: 10.6%; with `NCCCC(N)(C(=O)O)C(F)F` (stereo not given), inactive: -2.52%; with `COc1cc(/C=C(\C#N)C(=O)N2CCc3ccccc32)ccc1O`, inactive: -109%.
On to `Cc1ccccc1C(OCCN(C)C)c1ccccc1` (stereo not given), for which the inhibition was inactive: -5.6%.
In the case of `Cc1ccc(NCCC(=O)c2ccccc2)cc1Cl`, the inhibition is inactive: -5.14%.
On to `CCSC(SCC)[C@H](O)[C@@H](O)[C@H](O)[C@H](O)CO`, for which the inhibition is inactive: 2.44%.
